{
  "source": "patent US20130303562A1",
  "about": "“CHEMICAL AND RNAI SUPPRESSORS OF NEUROTOXICITY IN HUNTINGTON'S DISEASE” (priority 2010, published 2013)",
  "tested_on": "Htt-Q138 expressing primary neural cultures",
  "assay": "In vitro validation of screen hits by confocal microscopy of primary cultures on glass coverslips",
  "format": "cell-based, Drosophila",
  "conditions": "up to one week of continuous exposure",
  "source_text": "FIG. 4. In vitro validation of small molecule screen hits. Confocal microscopy images of primary cultures plated on glass coverslips and treated with either DMSO (A,B) or test compounds (C,D). […] HttQ15 is soluble and fills most neurite processes. […] (E) Quantification of altered Htt138Q distribution following Camptothecin treatment.\nMicroscopy: For high-content screening mature 7-day old cultures were imaged with an ImageXpress^MICRO robotic microscope (Molecular Devices, Sunnyvale, Calif.) using a 10× objective and FITC/Cy3 filter sets. Images were 1392×1040 pixels, or 897×670 micrometers. Laser-based autofocusing was used to locate plate bottoms, and then image-based focusing used to resolve fluorescently labeled neurons over a 48 μm range. The GFP and mRFP channels were imaged in the same focal plane, with exposure times of 850 and 400 ms respectively. Three sites were imaged per well for each treatment group, and the screen was done in duplicate. For confocal microscopy of primary cultures, neuroblasts were plated on poly-L-lysine coated chambered cover slips (LabTekII, 0.8 cm^2/well) at 18,300 cells/well in 50 μL volume. Small molecules were added to cultures 24 hours after plating, incubated for 7 days, and then imaged with a Leica TCS-SP2 confocal LSM microscope.",
  "note": "Entries after “also recorded” stand apart in the source; their conditions may differ.",
  "data": [
    {"smiles": "CC[C@@]1(O)C(=O)OCc2c1cc1n(c2=O)Cc2cc3ccccc3nc2-1", "note": "[Camptothecin]", "values": [
      {"measurement": "Expression levels of Htt-Q138 / Htt-mRFP fluorescence", "value": "did not observe any decrease in Htt-mRFP fluorescence; also recorded: does not alter expression levels of Htt-Q138"}
    ]}
  ]
}
